No constants are given. Whether binding was seen depends on the method and setting.
Target: T1, GUN1 (GENOMES UNCOUPLED 1), chloroplast-localized pentatricopeptide repeat (PPR) protein (Arabidopsis thaliana) (UniProt Q9SIC9)
T1 sequence: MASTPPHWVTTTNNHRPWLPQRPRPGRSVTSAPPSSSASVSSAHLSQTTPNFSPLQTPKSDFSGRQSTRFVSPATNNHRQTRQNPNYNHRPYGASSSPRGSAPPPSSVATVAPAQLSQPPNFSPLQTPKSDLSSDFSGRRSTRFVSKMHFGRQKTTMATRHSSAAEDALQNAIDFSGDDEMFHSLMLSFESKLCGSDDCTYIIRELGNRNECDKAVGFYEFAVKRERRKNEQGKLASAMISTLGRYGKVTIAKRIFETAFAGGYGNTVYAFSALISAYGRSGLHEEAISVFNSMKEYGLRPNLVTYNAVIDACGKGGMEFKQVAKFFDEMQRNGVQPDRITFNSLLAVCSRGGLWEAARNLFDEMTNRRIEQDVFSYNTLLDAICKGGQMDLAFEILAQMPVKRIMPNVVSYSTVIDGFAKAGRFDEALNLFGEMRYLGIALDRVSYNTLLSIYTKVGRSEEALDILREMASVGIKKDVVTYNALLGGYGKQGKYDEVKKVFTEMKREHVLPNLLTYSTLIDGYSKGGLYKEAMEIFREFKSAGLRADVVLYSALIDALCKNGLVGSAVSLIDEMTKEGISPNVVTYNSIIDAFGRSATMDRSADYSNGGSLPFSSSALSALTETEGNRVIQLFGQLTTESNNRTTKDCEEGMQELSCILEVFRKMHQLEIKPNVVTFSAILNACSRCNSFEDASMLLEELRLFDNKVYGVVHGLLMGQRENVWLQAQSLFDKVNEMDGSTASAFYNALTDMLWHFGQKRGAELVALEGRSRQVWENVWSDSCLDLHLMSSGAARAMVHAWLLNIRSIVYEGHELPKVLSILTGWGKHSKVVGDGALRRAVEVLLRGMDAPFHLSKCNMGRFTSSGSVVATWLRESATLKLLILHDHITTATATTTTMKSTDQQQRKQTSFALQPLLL
Experiment: two-hybrid; GUN1-BD (pGBKT7, bait) and COE1-AD (pGADT7, prey) co-transformed into yeast AH109; growth on SD-His-Leu-Trp-Ade plates with 40 ug/ml X-alpha-Gal, alpha-galactosidase activity assayed

B1: mitochondrial transcription termination factor 4 (mTERF4)/COE1/BSM/RUG2 (protein, UniProt Q9ZT96 1-541)
chain: MKIRFCNGFTKPGFLLVHFEPPSFFAVRSRSLSDSTYGNLCNHKKRPGTGIGLTVQCAIANRRFSSRSLDSPRRERSSRSSSSSGRDRDRDKDKGRDSKSLYSRPSLLDMNKEKAANRAKVYEFLRGIGIVPDELDGLELPVTADVMKERVEFLHKLGLTIEDINNYPLVLGCSVKKNMVPVLDYLGKLGVRKSTFTEFLRRYPQVLHSSVVIDLAPVVKYLQGLDIKPSDVPRVLERYPEVLGFKLEGTMSTSVAYLVGIGVARREIGGILTRYPEILGMRVARIIKPLVEYLEVLGIPRLAAARLIEKRPHILGFELDDTVKPNVQILQDFNVRETSLPSIIAQYPEIIGIDLKPKLDTQRKLLCSAIHLNPEDLGSLIERMPQFVSLSESPMLKHIDFLTKCGFSIDQTREMVIGCPQVLALNLGIMKLSFEYFQKEMKRPLQDLVDFPAFFTYGLESTVKPRHKKIIKKGIKCSLAWMLNCSDEKFEQRMSYDTIDIEEVETDPSSFDMNTLMQPEREEESDSEYEEEEDDDDEEFA
- binding: no binding

Reference: PMC4915522
